PubChem BioAssay AID743121 – NCATS – 2013
Here is an unselected part of about 26,000 deposited reagents. 167 of them (0.63%) were called active. 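Calls are per gene from RSA p-values that are not deposited; an individual active-marked siRNA can sensitise only weakly.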 The numbers tell different reagents against one gene apart. No sequences are given here.

Test: 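Partners whose loss is lethal together with topoisomerase I blockade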 (primary screen)
Cell system: MDA-MB-231 cells, a human breast cancer line
Reagents: single siRNA against human genes, 20 nM siRNA (0.8 pmol per well)
Time to read-out: 120 h (drug added 48 h after transfection, read 72 h later)
Conditions: camptothecin 20 nM (about EC30) for 72 h; vehicle 0.1% DMSO in parallel plates
Measured: 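CellTiter-Glo ATP signal, scaled to control siRNA as percent viability; sensitisation given as log2 of untreated divided by camptothecin-treated viability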
Reading the numbers: log2 vehicle/camptothecin viability: higher = stronger sensitisation to camptothecin; viability with camptothecin and viability without drug: higher = more viable cells
Active means: 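Active genes have an RSA gene-level p-value below 0.001, computed from the ratios of their separate siRNAs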

| gene knocked down | reagent | log2 vehicle/camptothecin viability | viability with camptothecin (% of control) | viability without drug (% of control) | call |
| --- | --- | --- | --- | --- | --- |
| MED14 (mediator complex subunit 14) | 1 | -0.267 | 50.4 | 41.9 | inactive |
| MED14 (mediator complex subunit 14) | 2 | -0.0709 | 59.4 | 56.5 | inactive |
| MED14 (mediator complex subunit 14) | 3 | -0.237 | 63.2 | 53.6 | inactive |
| MED14 (mediator complex subunit 14) | 4 | -0.562 | 78.9 | 53.5 | inactive |
| FEN1 (flap structure-specific endonuclease 1) | 1 | -0.347 | 119 | 93.7 | inactive |
| FEN1 (flap structure-specific endonuclease 1) | 2 | -0.604 | 81.9 | 53.9 | inactive |
| FEN1 (flap structure-specific endonuclease 1) | 3 | 0.109 | 67 | 72.3 | inactive |
| FEN1 (flap structure-specific endonuclease 1) | 4 | -0.0761 | 104 | 98.9 | inactive |
| MAF (MAF bZIP transcription factor) | 1 | -0.122 | 79.3 | 72.9 | inactive |
| MAF (MAF bZIP transcription factor) | 2 | -0.457 | 75.8 | 55.2 | inactive |
| MAF (MAF bZIP transcription factor) | 3 | -0.484 | 107 | 76.8 | inactive |
| ARHGEF5 (Rho guanine nucleotide exchange factor 5) | 1 | -0.182 | 102 | 90.3 | inactive |
| ARHGEF5 (Rho guanine nucleotide exchange factor 5) | 2 | -0.00593 | 56.4 | 56.2 | inactive |
| ARHGEF5 (Rho guanine nucleotide exchange factor 5) | 3 | 0.0545 | 95 | 98.6 | inactive |
| ARHGEF5 (Rho guanine nucleotide exchange factor 5) | 4 | -0.472 | 119 | 85.4 | inactive |
| SMPD1 (sphingomyelin phosphodiesterase 1) | 1 | -0.362 | 86.6 | 67.4 | inactive |
| SMPD1 (sphingomyelin phosphodiesterase 1) | 2 | 0.0691 | 36.8 | 38.6 | inactive |
| SMPD1 (sphingomyelin phosphodiesterase 1) | 3 | 0.873 | 58.3 | 107 | inactive |
| MTR (5-methyltetrahydrofolate-homocysteine methyltransferase) | 1 | -0.175 | 69.8 | 61.8 | inactive |
| MTR (5-methyltetrahydrofolate-homocysteine methyltransferase) | 2 | -0.582 | 115 | 76.5 | inactive |
| MTR (5-methyltetrahydrofolate-homocysteine methyltransferase) | 3 | 0.117 | 66.6 | 72.3 | inactive |
| MTR (5-methyltetrahydrofolate-homocysteine methyltransferase) | 4 | -0.13 | 65.7 | 60 | inactive |
| TAL1 | 1 | -0.0174 | 83.2 | 82.2 | inactive |
| TAL1 | 2 | -0.493 | 83.1 | 59 | inactive |
| TAL1 | 3 | -0.344 | 93 | 73.2 | inactive |
| TAL1 | 4 | -0.374 | 53 | 40.9 | inactive |
| PSMC5 (proteasome 26S subunit, ATPase 5) | 1 | -0.254 | 10.7 | 8.97 | inactive |
| PSMC5 (proteasome 26S subunit, ATPase 5) | 2 | -0.574 | 13.9 | 9.37 | inactive |
| PSMC5 (proteasome 26S subunit, ATPase 5) | 3 | -0.359 | 13.5 | 10.6 | inactive |
| PSMC5 (proteasome 26S subunit, ATPase 5) | 4 | 0.053 | 3.53 | 3.66 | inactive |

Copied from the listing for reference:
| gene knocked down | reagent | log2 vehicle/camptothecin viability | viability with camptothecin (% of control) | viability without drug (% of control) | call |
| --- | --- | --- | --- | --- | --- |
| FEN1 (flap structure-specific endonuclease 1) | 2 | -0.604 | 81.9 | 53.9 | inactive |
| FEN1 (flap structure-specific endonuclease 1) | 3 | 0.109 | 67 | 72.3 | inactive |
